Measurements published in PubChem BioAssay AID2732 (Emory University Molecular Libraries Screening Center, 2010).
The entries are a selection whose mix differs from that of the whole data set. Activity calls are given as the source filed them.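 Rule for the calls: active = compounds that reduced the stress-induced luciferase reporter signal by more than about 70% of percent inhibition (limit read from the data); inactive = the rest.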

test: blockers of ER-stress CHOP reporter expression – cell-based, unfolded protein response, luciferase reporter, primary screen (AID 2732); details: CHO-K1 CHOP-promoter luciferase, tunicamycin-induced, 15-18 h; at 10 µM; active compounds read high;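 note: 0% = tunicamycin plus vehicle and 100% = wells without tunicamycin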

inhibition, active:
Nc1nonc1-n1nnc(C(=O)N/N=C/c2ccc(OCc3ccc(F)cc3)cc2)c1COc1ccccc1 99.9%, COc1ccc2[nH]c3c(C)c4ccncc4c(C)c3c2c1 103%, COc1cc(CN2CCc3ccccc3C2)ccc1O 107%, CCc1ccc(Oc2coc3cc(OCC(=O)Nc4cc(C)ccc4C)ccc3c2=O)cc1 99%, CC(C)(C)C1CCC2(CC1)C(C#N)=C(SCC(=O)Nc1ccccc1)NC(=O)C2C#N (stereo not given) 105%
